US8293729B2 (Boehringer Ingelheim International GmbH, priority 2009, dated 2012)
The structures given here were assigned with low confidence; some may be wrong.

By UniProt entry, the sequences of proteins in these tests, tags left out. Chains listed by the source or under a name are the forms on record and can include a tag or linker. Residues count along the entry.
UniProt Q8TDV5, 2-335 with tags or gaps S329A/T327A limits assumed: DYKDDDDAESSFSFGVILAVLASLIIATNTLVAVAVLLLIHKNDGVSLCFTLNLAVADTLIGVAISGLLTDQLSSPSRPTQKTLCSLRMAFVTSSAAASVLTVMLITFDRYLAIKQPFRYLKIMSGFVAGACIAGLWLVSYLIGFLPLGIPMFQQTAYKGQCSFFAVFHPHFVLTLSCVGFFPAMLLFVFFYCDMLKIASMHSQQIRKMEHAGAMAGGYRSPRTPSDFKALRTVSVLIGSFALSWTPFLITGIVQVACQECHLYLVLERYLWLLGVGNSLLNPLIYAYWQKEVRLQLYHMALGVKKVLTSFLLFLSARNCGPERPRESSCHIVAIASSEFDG

Target: human GPR119 receptor (Homo sapiens, UniProt Q8TDV5, S329A/T327A)
Assay: cAMP assay (LANCE cAMP-384) in HEK293 cells stably expressing mutant human GPR119 receptor
Conditions: the 31st table
Experimental: Quantitative detection of cAMP accumulation from cells expressing human GPR119 receptor was achieved using Perkin Elmer's LANCE cAMP-384 Kit (Cat#AD0264) according to the manufacturer's protocol. Briefly, HEK293 cells stably expressing a mutant form of the human GPR119 receptor (Methionine 1 replaced with the amino acid sequence […] (SEQ ID NO: 1), and T327 & S329 changed to alanines) were grown to 50-70% confluency in cell culture media (DMEM, 10% heat inactivated Fetal Bovine Serum, 50 I.U./mL penicillin, 50 μg/mL streptomycin, 10 mM HEPES, 20 μg/mL G418 Sulfate). On the day of the assay, GPR119 stable HEK293 cells were lifted from the tissue culture plate and 1000 cells/well were incubated along with various concentrations of test compounds for 20 min at 37° C. Detection Buffer (50mM HEPES, 10mM calcium chloride, 0.35% Triton X-100, 1 mg/mL BSA) containing cAMP-specific antibody was then added to all wells and allowed to equilibrate in the dark for 10 minutes at room temperature. […] After 1 hour, bound europium-labeled cAMP tracer was measured using a Perkin Elmer ViewLux. The quantity of cAMP generated in each well was derived from a standard curve. […]
For some compounds for which no EC50 value could be determined, the efficacy is provided at a single concentration (10 μM) yielding % stimulation values.

CC(C)OC(=O)N1CCC(ON=C2CCN(c3ccc(S(C)(=O)=O)cc3F)C2)CC1
EC50 (first isomer, tR 5.34 (E/Z or Z/E)): 1150 nM | EC50 (second isomer, tR 5.45 (E/Z or Z/E)): 542 nM
